# Source: PubChem BioAssay AID720504 (National Center for Advancing Translational Sciences (NCATS), 2013)
# Sequences of proteins named here, by UniProt entry; tags and fusion partners are left off.
# UniProt P53350, whole entry, looked up: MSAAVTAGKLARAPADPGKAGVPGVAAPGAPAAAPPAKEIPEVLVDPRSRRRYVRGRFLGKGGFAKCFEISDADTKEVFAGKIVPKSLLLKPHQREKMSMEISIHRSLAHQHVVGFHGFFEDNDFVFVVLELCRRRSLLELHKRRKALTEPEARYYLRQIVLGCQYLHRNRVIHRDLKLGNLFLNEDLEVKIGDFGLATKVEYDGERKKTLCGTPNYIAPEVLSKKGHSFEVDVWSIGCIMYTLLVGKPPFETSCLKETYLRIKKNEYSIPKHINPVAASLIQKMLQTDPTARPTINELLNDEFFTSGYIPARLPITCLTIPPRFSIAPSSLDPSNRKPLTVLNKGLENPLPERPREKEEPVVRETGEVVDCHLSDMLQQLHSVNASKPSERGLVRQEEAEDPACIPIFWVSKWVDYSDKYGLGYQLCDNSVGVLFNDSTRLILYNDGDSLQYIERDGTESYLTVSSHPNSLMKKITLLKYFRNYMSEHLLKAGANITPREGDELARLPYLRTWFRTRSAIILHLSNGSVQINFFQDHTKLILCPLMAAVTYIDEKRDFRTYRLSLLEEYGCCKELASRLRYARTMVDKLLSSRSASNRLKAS
# The campaign covered roughly 360,000 compounds. About 10,000 (2.8%) were called active. The shares of active, inactive and inconclusive entries below differ from those in the screen. Calls come from the whole dose curve; as a rule, active = well fitted inhibition curve with a large enough effect; inconclusive = small, poorly fitted or top-dose-only effect; inactive = flat fitted curve, though single readings scatter. Potencies of inconclusive entries are doubtful fits and often do not repeat.
# Target: Serine/threonine-protein kinase PLK1 (Homo sapiens) (UniProt P53350)
# Test: qHTS for Inhibitors of PLK1-PDB (polo-like kinase 1 - polo-box domain): Primary Screen; note: nearly all actives have a fitted effect of over 65% in size; for max response, negative = inhibition: series mostly up to about 57 µM
# Conditions: Plk1 PBD binding of FITC phosphopeptide, fluorescence polarization
# % is set by controls: 0 for no effect and ±100 for the full control effect; potency is the fitted concentration of half-maximal effect.
SMILES,Potency,"max response, negative = inhibition"
COc1ccc(-c2c(=O)n(OC)c3ccccc3[n+]2[O-])cc1OC,"inconclusive: 29.9 µM [inhibitor, partial curve]",
COc1ccc(C(=O)Nc2ccc(S(=O)(=O)N3CCCCC3)cc2)cc1OC,"inconclusive: 21.2 µM [inhibitor, single point]",
CC(/C=C/c1ccc(C)o1)=C\C(=O)O,,inactive: -27.1%
COc1cccc(/C=C/C(=O)OC(C)C(=O)Nc2c(C)n(C)n(-c3ccccc3)c2=O)c1 (stereo unspecified),,inactive: -8.4%
C=CCOC(=O)C(=O)/C=C/c1coc2ccccc2c1=O,"inconclusive: 33.6 µM [inhibitor, partial curve]",
COCCn1c(=NC(=O)c2ccco2)sc2cc(C(=O)OC)ccc21,"inconclusive: 26.7 µM [inhibitor, single point]",
Cc1cc(OCC(=O)NNC(=S)NC(=O)c2ccc(Br)o2)ccc1Cl,"inconclusive: 23.8 µM [inhibitor, partial curve]",
COc1cc(/C=C2/NC(=O)N(Cc3ccccc3F)C2=O)ccc1O,"inconclusive: 5.97 µM [inhibitor, single point]",
O=C(c1ccc2c3c(cccc13)CC2)N1CCOCC1,"inconclusive: 29.9 µM [inhibitor, single point]",
Cc1cc(=O)[nH]c(-c2cccnc2)n1,"inconclusive: 23.8 µM [inhibitor, single point]",
COc1ccc(-c2cc(C(=O)Nc3ccc(S(=O)(=O)Nc4onc(C)c4C)cc3)c3ccccc3n2)cc1,"inconclusive: 37.7 µM [inhibitor, single point]",
NS(=O)(=O)c1ccc(CNC(=O)CCSCCC(=O)NCc2ccc(S(N)(=O)=O)cc2)cc1,"inconclusive: 26.7 µM [inhibitor, partial curve]",
Cc1ccc(SCCC(=O)OCC(=O)NCC2CCCCC2)cc1,"inconclusive: 29.9 µM [inhibitor, partial curve]",
Cc1nc(SCC(=O)N2CCN(c3ccccn3)CC2)c(C#N)c(C)c1C,"inconclusive: 33.6 µM [inhibitor, single point]",
NC(=O)C(Cc1ccccc1)N1C(=O)c2ccccc2C1=O (stereo unspecified),,inactive: -14.4%
S=c1[nH]c(-c2ccccc2)cs1,active: 21.2 µM,
CCc1ccc(C2NC(=S)NC3=C2C(=O)N(c2ccccc2OC)C(c2ccc(CC)cc2)N3)cc1 (stereo unspecified),,inactive: -4.58%
O=C(Nc1ccccc1N(C(=O)c1ccco1)S(=O)(=O)c1cccs1)c1ccco1,"inconclusive: 29.9 µM [inhibitor, single point]",
COCCCNC(=O)c1cc(S(=O)(=O)N2CCOCC2)ccc1SCc1cccc(OC)c1OC,,inactive: -13.2%
CCOC(=O)C(=O)CC(=O)c1ccc2c(c1)OCCO2,,inactive: -14.4%
O=C1C2CC=CCC2C(=O)N1c1n[nH]c(Cc2ccccc2)n1 (stereo unspecified),"inconclusive: 26.7 µM [inhibitor, single point]",
COc1c(Cl)cc(C(=O)Nc2ccccc2C(=O)O)cc1Cl,"inconclusive: 37.7 µM [inhibitor, single point]",

SMILES,Potency,"max response, negative = inhibition"
O=C(/C=C/c1cn(-c2ccccc2)nc1-c1ccccc1)Nc1ccc(C(=O)O)cc1,"inconclusive: 26.7 µM [inhibitor, partial curve]",
Cc1ccc(Cl)cc1NC(=S)N(CCCN1CCOCC1)Cc1ccco1,"inconclusive: 37.7 µM [inhibitor, single point]",
O=[N+]([O-])c1ccccc1N/N=C/c1cccc(O)c1O,,inactive: -5.79%
CC(=O)C1=CCC(c2ccc(Cl)c(Cl)c2)N(S(=O)(=O)c2ccc(C)cc2)C1 (stereo unspecified),,inactive: -10.4%
CC(=NNC(=S)Nc1cccc(C)c1)c1ccccn1,"inconclusive: 26.7 µM [inhibitor, single point]",
CC(=O)N1c2ccc(S(=O)(=O)N3CCCC(C(=O)N4CCCC(C)C4)C3)cc2CC1C (stereo unspecified),,inactive: -17.5%
Cc1cc(C(=O)c2ccccc2)c(NC(=O)CCl)s1,"inconclusive: 23.8 µM [inhibitor, partial curve]",
Cc1cc(C)c(-c2csc(Cc3nc(-c4cc5ccccc5oc4=O)cs3)n2)cc1C,active: 26.7 µM,
CC(=O)NC(c1ccc(F)c(F)c1)c1nc(-c2cnn(C)c2)cs1 (stereo unspecified),,inactive: -8.95%
Cc1ccc(NC(=O)CSc2cccc3cccnc23)c(C)c1,"inconclusive: 23.8 µM [inhibitor, partial curve]",
O=C(O)C(Cc1c[nH]c2ccccc12)NS(=O)(=O)c1ccc(Cl)cc1 (stereo unspecified),,inactive: -5.73%
O=C1Nc2ccccc2N=C(c2ccc3c(c2)OCO3)C1N(CCc1ccccc1)C(=O)CSc1ncccn1 (stereo unspecified),"inconclusive: 26.7 µM [inhibitor, single point]",
CCN(C(=O)CSc1ccccn1)C1CCCCC1,"inconclusive: 21.2 µM [inhibitor, partial curve]",
O=C(O)CC(Sc1n[nH]c(=S)s1)C(=O)O (stereo unspecified),"inconclusive: 26.7 µM [inhibitor, partial curve]",
COc1cc(/C=C2/C(=O)NN(c3cccc(C)c3)C2=O)cc([N+](=O)[O-])c1O,"inconclusive: 29.9 µM [inhibitor, partial curve]",
S=C(c1ccccc1)N1CCCC1,"inconclusive: 37.7 µM [inhibitor, single point]",
O=S(=O)(c1ccc(SCc2ccccc2)nc1)N1CCCCC1,"inconclusive: 26.7 µM [inhibitor, partial curve]",
COc1ccc(NC2=CC(=O)CC(c3ccc(C)cc3)C2)c(OC)c1 (stereo unspecified),"inconclusive: 26.7 µM [inhibitor, partial curve]",
O=C(Nc1cccc([N+](=O)[O-])c1)ONC1=NCCCCC1,"inconclusive: 33.6 µM [inhibitor, partial curve]",
COc1ccccc1C(=O)N1CCN(Cc2c[nH]c3ccccc23)CC1,,inactive: -14.9%
Cc1ccc2c(c1)c(N=Nc1ccc([N+](=O)[O-])cc1)c(O)n2C,,inactive: 1.47%
CC(C)C[C@H](N)c1nnc(S(=O)(=O)Cc2cccc(F)c2)o1,"inconclusive: 18.9 µM [inhibitor, partial curve]",

SMILES,Potency,"max response, negative = inhibition"
Cc1ccc(NC(=O)Cn2nnc(C(=O)NCCc3ccccc3)c2N)c(C)c1,active: 5.97 µM,
CCCOc1ccc(/C(O)=C2/C(=O)C(=O)N(c3cc(C)on3)C2c2ccc(C(=O)OC)cc2)cc1 (stereo unspecified),"inconclusive: 16.8 µM [inhibitor, partial curve]",
Cc1nc2c3ccccc3n(Cc3ccccc3F)c2s1,,inactive: -8.42%
O=C(CCC(=O)c1cccs1)OCc1nnc(-c2ccccc2)o1,active: 26.7 µM,
O=C(O)CC(SCC(=O)Nc1ccc(S(=O)(=O)N2CCCC2)cc1)C(=O)O (stereo unspecified),"inconclusive: 18.9 µM [inhibitor, partial curve]",
C=CCSc1nnc(N2C(=O)C(O)=C(C(=O)c3ccco3)C2c2ccc(F)cc2)s1 (stereo unspecified),"inconclusive: 26.7 µM [inhibitor, partial curve]",
CCOC(=O)c1cnc2c(F)ccc(F)c2c1Sc1ccccc1,"inconclusive: 5.97 µM [inhibitor, partial curve]",
CC(/C=C/c1ccccc1)=N/O,"inconclusive: 37.7 µM [inhibitor, single point]",
Cc1ccc(S(=O)(=O)N2CCN(C(=S)NCc3ccc4c(c3)OCO4)CC2)cc1,"inconclusive: 13.4 µM [inhibitor, partial curve]",
CC(C)C[C@@H](CNCC(=O)[C@H](CC(=O)O)NC(=O)c1[nH]cnc1C(=O)N[C@H](CN)CC(C)C)NC(=O)c1nc[nH]c1C(=O)N[C@@H](Cc1ccccc1)C(=O)O,"inconclusive: 21.2 µM [inhibitor, single point]",
O=C(C[N+]12CC[N+](CC(=O)c3ccc(F)cc3)(CC1)CC2)c1ccc(F)cc1,"inconclusive: 42.3 µM [inhibitor, partial curve]",
COc1cc(C2CC(=O)N3CN(Cc4ccccc4)CSC3=C2C#N)ccc1OCc1ccccc1 (stereo unspecified),"inconclusive: 18.9 µM [inhibitor, partial curve]",
CCCc1cc(=O)[nH]c(SCC(=O)N2N=C(c3ccc(Cl)cc3)CC2c2ccco2)n1 (stereo unspecified),"inconclusive: 29.9 µM [inhibitor, single point]",
CCOC(=O)c1ccc(CC(=O)c2ccc(O)c(O)c2O)o1,"inconclusive: 21.2 µM [inhibitor, single point]",
CCN1CCN(c2nc(Nc3cccc(F)c3)nc(N)c2[N+](=O)[O-])CC1,"inconclusive: 37.7 µM [inhibitor, single point]",
Nc1cccc(N2C(=O)c3cccc4c(N)ccc(c34)C2=O)c1,active: 10.6 µM,
Cc1ccc(S(=O)(=O)Nc2nc(C)c(C(=O)NNS(=O)(=O)c3cc(C)ccc3C)s2)cc1,,inconclusive: -30.6% [inhibitor]
COc1ccc(Cn2cc(CN(C)C3CN(Cc4cn(Cc5ccc(OC)cc5)nn4)S(=O)(=O)C3)nn2)cc1 (stereo unspecified),,inactive: -9.75%
O=C(N/N=C\c1ccc([N+](=O)[O-])o1)C1COc2ccccc2O1 (stereo unspecified),,inactive: -7.71%
N/N=C1\CCCc2c1[nH]c1ccc([N+](=O)[O-])cc21,"inconclusive: 18.9 µM [inhibitor, partial curve]",
COc1ccccc1NC(=O)c1cc([N+](=O)[O-])ccc1NCCN1C(=O)CCC1=O,"inconclusive: 21.2 µM [inhibitor, single point]",
COC(=O)c1cc(OC)c(OC)cc1NC(=S)Nc1cc(Cl)ccc1OC,"inconclusive: 29.9 µM [inhibitor, single point]",

# Given with tabs: part of the list above
SMILES	Potency	max response, negative = inhibition
S=c1[nH]c(-c2ccccc2)cs1	active: 21.2 µM	
CCc1ccc(C2NC(=S)NC3=C2C(=O)N(c2ccccc2OC)C(c2ccc(CC)cc2)N3)cc1 (stereo unspecified)		inactive: -4.58%
O=C(Nc1ccccc1N(C(=O)c1ccco1)S(=O)(=O)c1cccs1)c1ccco1	inconclusive: 29.9 µM [inhibitor, single point]	
COCCCNC(=O)c1cc(S(=O)(=O)N2CCOCC2)ccc1SCc1cccc(OC)c1OC		inactive: -13.2%
